Assay results from patent US10898434B2, “Single-walled carbon nanotube-assisted antibiotic delivery and imaging techniques” (Texas Christian University, priority 2018, dated 2021).
For at least one compound, name, drawing or mass did not settle the structure.

Tested on: S. epidermidis
Assay: Disk diffusion (zone inhibition) assay
Type: cell-based, Staphylococcus epidermidis
Conditions: 2 and 4 mg doses; compared to non-treatment control; 24 h at 37° C.
Experimental: S. epidermidis broth of McFarland 0.5 standard (absorption of 0.08 to 0.1) was created using Mueller Hilton Broth. This standard stabilized the cell count at an approximate 1×10^8 CFU/mL Dilution was plated within 15 minutes of standardization. Following the proper aseptic techniques, 0.2 mL of bacterial broth was placed in the center of prepared agar dish. A sterile bacteria spreader was used to evenly spread the bacteria throughout the plate to create a lawn.
Two different dosages of the antibacterial solutions were tested to increase the breadth and reliability of data. […] Petri dishes are incubated for 24 h at 37° C., then the zones of inhibition were measured with the inclusion of disk diameter in the measurements.
The statistical analysis performed in this work confirm the significance of the observed results for diffusion discs performed at different amounts of SWCNT/antibiotic complex loaded onto discs. […] When the p-value of the analysis is lower than the confidence level chosen, the hypothesis is proven false and a significant difference and variation is detected.
The dataset is analyzed using a comparison of means function by assigning a mean of the control group and comparing it to the means of each of the treatment groups. […]

C[C@H]1c2cccc(O)c2C(=O)C2=C(O)[C@]3(O)C(=O)C(C(N)=O)=C(O)[C@@H](N(C)C)[C@@H]3[C@@H](O)[C@@H]21 [doxycycline]
antibacterial effect (zone of inhibition) of antibiotic alone: significantly more effective
